Experimental data as given in paper doi:10.1101/2021.10.26.465916.
No constants are given. Whether binding was seen depends on the method and setting. Binding seen in cells or lysates may run through a third protein. Some binding calls cover weakened binding; strength is not graded here.

The chains behind the UniProt entries cited, without tags or fusion partners.
UniProt P0DMV8: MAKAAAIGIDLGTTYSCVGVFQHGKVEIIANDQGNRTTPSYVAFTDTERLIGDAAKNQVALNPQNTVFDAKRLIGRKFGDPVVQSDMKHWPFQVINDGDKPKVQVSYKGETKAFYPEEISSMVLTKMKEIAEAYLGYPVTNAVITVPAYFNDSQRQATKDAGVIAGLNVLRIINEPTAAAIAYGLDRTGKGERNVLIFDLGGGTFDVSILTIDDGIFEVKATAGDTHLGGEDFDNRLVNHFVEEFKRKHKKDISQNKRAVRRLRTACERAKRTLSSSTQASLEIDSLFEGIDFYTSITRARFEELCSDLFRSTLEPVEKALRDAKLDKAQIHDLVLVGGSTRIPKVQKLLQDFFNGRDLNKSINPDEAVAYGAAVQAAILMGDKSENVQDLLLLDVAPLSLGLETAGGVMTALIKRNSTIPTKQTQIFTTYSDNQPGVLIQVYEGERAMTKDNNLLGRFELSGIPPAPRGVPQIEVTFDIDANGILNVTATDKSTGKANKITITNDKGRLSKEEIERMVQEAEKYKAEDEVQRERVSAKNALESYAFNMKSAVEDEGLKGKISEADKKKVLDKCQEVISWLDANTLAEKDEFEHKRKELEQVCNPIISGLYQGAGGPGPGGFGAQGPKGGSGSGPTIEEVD

Target: HSPA1A (human (endogenous in HeLa)) (UniProt P0DMV8)
Test: co-IP

binding: binds
B1: myeloid leukemia factor 2 (MLF2) (protein, UniProt Q15773 1-248)
chain: MFRFMRDVEPEDPMFLMDPFAIHRQHMSRMLSGGFGYSPFLSITDGNMPGTRPASRRMQQAGAVSPFGMLGMSGGFMDMFGMMNDMIGNMEHMTAGGNCQTFSSSTVISYSNTGDGAPKVYQETSEMRSAPGGIRETRRTVRDSDSGLEQMSIGHHIRDRAHILQRSRNHRTGDQEERQDYINLDESEAAAFDDEWRRETSRFRQQRPLEFRRLESSGAGGRRAEGPPRLAIQGPEDSPSRQSRRYDW
